According to paper PMC12431657, “Discovery and mechanistic insights of dibenzoylmethane as a broad spectrum inhibitor of coronavirus” (PLOS Pathogens, 2025):
Structures can show the parent of a compound that is named as a salt. Where two headings read alike, the source gives them in different places. In all, about 3,300 compounds went through this assay and about 60 (2%) showed an effect of 50% or more. The list shows a part of the results.

System: HCoV-OC43
Set-up: species or system RD; HTS, protection from HCoV-OC43 induced cell death, luminescent cell viability (CellCounting-Lite 2.0), inhibition rate
Conditions: 24 h post infection, 1 h compound pre-incubation, 10 µM, inhibitor

Compound | OC43 Inhibition rate [%] | OC43 Inhibition rate (OC43 Inhibition rate, 24 h) [%]
O=C[C@H](O)[C@@H](O)[C@H](O[C@H]1O[C@H](CO)[C@@H](O[C@H]2O[C@H](CO)[C@@H](O[C@H]3O[C@H](CO)[C@@H](O[C@H]4O[C@H](CO)[C@@H](O)[C@H](O)[C@H]4O)[C@H](O)[C@H]3O)[C@H](O)[C@H]2O)[C@H](O)[C@H]1O)[C@H](O)CO [Maltopentaose] | 2.8 | 
COc1cc2c(c(O)c1OC)-c1c(cc(OC)c(OC)c1OC)C[C@@H](C)[C@@H](C)C2 [Schisanhenol] | 2 | 
Oc1ccc(O)c(O)c1 [1,2,4-Trihydroxybenzene] | -0.2 | 
CC(C)=C1CC[C@@H](C)CC1=O [Pulegone] | -1.4 | 
Cc1cn([C@H]2C[C@H](O)[C@@H](CO)O2)c(=O)[nH]c1=O [Thymidine] | 0.1 | 
C/C=C/C#CC#C[C@@H](O)[C@@H](/C=C/CCCO)O[C@@H]1O[C@H](CO)[C@@H](O)[C@H](O)[C@H]1O [Lobetyolin] | -0.8 | 
CC[C@H](CC[C@@H](C)[C@H]1CC[C@H]2[C@@H]3CC[C@H]4C[C@@H](O)CC[C@]4(C)[C@H]3CC[C@]12C)C(C)C [Stigmastanol] | 8.9 | 
COc1ccc(-c2oc3c(CCC(C)(C)O)c(O)cc(O)c3c(=O)c2O)cc1 [Wushanicaritin] | -0.1 | 
C[C@@H]1O[C@@H](OC[C@H]2O[C@@H](Oc3c(-c4ccc(O)cc4)oc4cc(O)cc(O)c4c3=O)[C@H](O[C@@H]3O[C@@H](C)[C@H](O)[C@@H](O)[C@H]3O)[C@@H](O)[C@@H]2O)[C@H](O)[C@H](O)[C@H]1O [Clitorin] | -0.5 | 
CC1CCCCC1=O (centres unmarked) [2-Methylcyclohexanone] | -0.1 | 
CC(=O)O[C@]12CCC(C)=CC[C@]13CC[C@H]2[C@@](C)(/C=C/C=C(\C)C(=O)O)OC3=O [Pseudolaric Acid A] | 0.9 | 
NCCC(=O)N[C@@H](Cc1cnc[nH]1)C(=O)O [L-Carnosine] | -3.2 | 
NC(=O)c1cccnc1 [Nicotinamide] | -0.3 | 
CC(C)C[C@H](N)C(=O)O [L-Leucine] | -1.2 | 
COc1cc2c3c(cc4ccccc4c3c1OC)N(C)CC2 [Dehydronuciferine] | -1.8 | 
C[C@@H](O)[C@@H](C)O [2,3-Butanediol] |  | 1.3
O=C(O)C[C@H](O)C(=O)O [(S)-Malic acid] | -1.2 | 
C=C(NC(=O)C(=C)NC(=O)c1csc(C2=N[C@@H]3c4csc(n4)[C@H]4NC(=O)c5csc(n5)[C@H]([C@](C)(O)[C@@H](C)O)NC(=O)[C@H]5CSC(=N5)/C(=C/C)NC(=O)[C@H]([C@@H](C)O)NC(=O)c5csc(n5)[C@]3(CC2)NC(=O)[C@H](C)NC(=O)C(=C)NC(=O)[C@H](C)NC(=O)[C@H]([C@@H](C)CC)N[C@@H]2C=Cc3c([C@H](C)O)cc(nc3[C@H]2O)C(=O)O[C@@H]4C)n1)C(N)=O [Thiostrepton] | -1.1 | 
CO[C@H]([C@H](C)[C@H]1O[C@@]2(CC[C@@](C)([C@H]3CC[C@@](C)([C@@H]4O[C@@H]([C@H]5O[C@@](O)(CO)[C@H](C)C[C@@H]5C)C[C@@H]4C)O3)O2)C[C@H](O)[C@H]1C)[C@H](C)C(=O)O [Monensin B] | 8.1 | 
NC(=O)CC(N)C(=O)O (racemic) [DL-Asparagine] | 0.4 | 
O=C(O)CCCCCCCCC(=O)O [Decanedioic acid] | 1.5 | 

Some of the entries so far, with tabs.
Compound	OC43 Inhibition rate [%]	OC43 Inhibition rate (OC43 Inhibition rate, 24 h) [%]
COc1cc2c(c(O)c1OC)-c1c(cc(OC)c(OC)c1OC)C[C@@H](C)[C@@H](C)C2 [Schisanhenol]	2	
Oc1ccc(O)c(O)c1 [1,2,4-Trihydroxybenzene]	-0.2	
CC(C)=C1CC[C@@H](C)CC1=O [Pulegone]	-1.4	
Cc1cn([C@H]2C[C@H](O)[C@@H](CO)O2)c(=O)[nH]c1=O [Thymidine]	0.1	
C/C=C/C#CC#C[C@@H](O)[C@@H](/C=C/CCCO)O[C@@H]1O[C@H](CO)[C@@H](O)[C@H](O)[C@H]1O [Lobetyolin]	-0.8	
CC[C@H](CC[C@@H](C)[C@H]1CC[C@H]2[C@@H]3CC[C@H]4C[C@@H](O)CC[C@]4(C)[C@H]3CC[C@]12C)C(C)C [Stigmastanol]	8.9	
COc1ccc(-c2oc3c(CCC(C)(C)O)c(O)cc(O)c3c(=O)c2O)cc1 [Wushanicaritin]	-0.1	
C[C@@H]1O[C@@H](OC[C@H]2O[C@@H](Oc3c(-c4ccc(O)cc4)oc4cc(O)cc(O)c4c3=O)[C@H](O[C@@H]3O[C@@H](C)[C@H](O)[C@@H](O)[C@H]3O)[C@@H](O)[C@@H]2O)[C@H](O)[C@H](O)[C@H]1O [Clitorin]	-0.5	
CC1CCCCC1=O (centres unmarked) [2-Methylcyclohexanone]	-0.1	
CC(=O)O[C@]12CCC(C)=CC[C@]13CC[C@H]2[C@@](C)(/C=C/C=C(\C)C(=O)O)OC3=O [Pseudolaric Acid A]	0.9	
NCCC(=O)N[C@@H](Cc1cnc[nH]1)C(=O)O [L-Carnosine]	-3.2	
NC(=O)c1cccnc1 [Nicotinamide]	-0.3	
CC(C)C[C@H](N)C(=O)O [L-Leucine]	-1.2	
COc1cc2c3c(cc4ccccc4c3c1OC)N(C)CC2 [Dehydronuciferine]	-1.8	
C[C@@H](O)[C@@H](C)O [2,3-Butanediol]		1.3
O=C(O)C[C@H](O)C(=O)O [(S)-Malic acid]	-1.2	
C=C(NC(=O)C(=C)NC(=O)c1csc(C2=N[C@@H]3c4csc(n4)[C@H]4NC(=O)c5csc(n5)[C@H]([C@](C)(O)[C@@H](C)O)NC(=O)[C@H]5CSC(=N5)/C(=C/C)NC(=O)[C@H]([C@@H](C)O)NC(=O)c5csc(n5)[C@]3(CC2)NC(=O)[C@H](C)NC(=O)C(=C)NC(=O)[C@H](C)NC(=O)[C@H]([C@@H](C)CC)N[C@@H]2C=Cc3c([C@H](C)O)cc(nc3[C@H]2O)C(=O)O[C@@H]4C)n1)C(N)=O [Thiostrepton]	-1.1	
CO[C@H]([C@H](C)[C@H]1O[C@@]2(CC[C@@](C)([C@H]3CC[C@@](C)([C@@H]4O[C@@H]([C@H]5O[C@@](O)(CO)[C@H](C)C[C@@H]5C)C[C@@H]4C)O3)O2)C[C@H](O)[C@H]1C)[C@H](C)C(=O)O [Monensin B]	8.1	

(more compounds)

Compound | OC43 Inhibition rate [%] | OC43 Inhibition rate (OC43 Inhibition rate, 24 h) [%]
CCCCCCCC/C=C\CCCCCCCCCCCC(=O)O [Erucic acid] | 0.1 | 
COC(=O)[C@@]12OC[C@]34[C@H]([C@@H](O)[C@@H]1O)[C@@]1(C)CC(=O)C(O)=C(C)[C@@H]1C[C@H]3OC(=O)[C@H](OC(=O)CC(C)C)[C@@H]24 [Bruceine A] | 11.8 | 
CC1(C)C=Cc2c(ccc(C(=O)/C=C/c3ccc(O)cc3)c2O)O1 [4-Hydroxylonchocarpin] |  | 21.9
COc1cc2c(cc1OC)[C@H]1[C@@H](C)c3ccc(OC)c(OC)c3CN1CC2 [Corydaline] | 0.6 | 
CC(=O)NCCCC[C@H](N)C(=O)O [Nepsilon-Acetyl-L-lysine] | -0.2 | 
COc1cc2ccc(=O)oc2c(O)c1OC [Fraxidin] | 0.1 | 
CCCCCc1ccco1 [2-Pentylfuran] | 0.3 | 
C[C@@H]1CC[C@@]2(OC1)O[C@H]1C[C@H]3[C@@H]4CC=C5C[C@@H](O[C@@H]6O[C@H](CO)[C@@H](O)[C@H](O[C@@H]7O[C@H](CO)[C@@H](O)[C@H](O)[C@H]7O)[C@H]6O[C@@H]6O[C@@H](C)[C@H](O)[C@@H](O)[C@H]6O)CC[C@]5(C)[C@H]4CC[C@]3(C)[C@H]1[C@@H]2C [Gracillin] | 7 | 
CNCC(O)c1ccc(O)cc1 (centres unmarked) [Synephrine] |  | -0.3
CO[C@H]1C(=O)[C@]2(C)[C@@H](OC)C[C@H]3OC[C@@]3(OC(C)=O)[C@H]2[C@H](OC(=O)c2ccccc2)[C@]2(O)C[C@H](OC(=O)[C@H](O)[C@@H](NC(=O)OC(C)(C)C)c3ccccc3)C(C)=C1C2(C)C [Cabazitaxel] | -5.4 | 
C[C@]1(C(=O)O)CCC[C@]2(C)c3cc(O)ccc3CC[C@@H]12 [Podocarpic acid] | -0.2 | 
O=C1c2ccccc2C(=O)c2cc(CO)ccc21 [2-(Hydroxymethyl)anthraquinone] | 3.2 | 
CC(C)=CCC/C(C)=C/COc1ccc2ccc(=O)oc2c1 [Auraptene] | 0 | 
COc1cc(/C=C/C(=O)O[C@H]2[C@H](O)[C@@H](CO)O[C@@]2(CO)O[C@H]2O[C@H](CO)[C@@H](O)[C@H](O)[C@H]2O)cc(OC)c1OC [Glomeratose A] | -0.4 | 
COc1c(OC)c2occc2c2oc(=O)ccc12 [Pimpinellin] | -1 | 
COc1cc(CC(=O)O)ccc1O [Homovanillic acid] | 4.3 | 
CC(=O)O[C@@]12CO[C@@H]1C[C@H](O)[C@@]1(C)C(=O)[C@H](O)C3=C(C)[C@@H](O)C[C@@](O)([C@@H](OC(=O)c4ccccc4)[C@H]21)C3(C)C [10-Deacetylbaccatin III] | 3.5 | 
C[C@H]1[C@H](C)CC[C@]2(C)CC[C@]3(C)C(=CC(=O)[C@@H]4[C@@]5(C)CC[C@@H](O)[C@](C)(C(=O)O)[C@@H]5CC[C@]43C)[C@H]12 [11-Keto-beta-boswellic acid] | 0.1 | 
OC1OC[C@@H](O)[C@H](O)[C@@H]1O (stereo partly drawn) [D-Lyxose] | -0.4 | 
CCCCCCCCO [1-Octanol] | 2.3 | 
O=C(O)/C=C/c1ccccc1O [2-Hydroxycinnamic acid] | 0.5 | 

Compound | OC43 Inhibition rate [%] | OC43 Inhibition rate (OC43 Inhibition rate, 24 h) [%]
C[C@@H]1CC[C@@]2(OC1)O[C@H]1C[C@H]3[C@@H]4CC[C@H]5C[C@@H](O)[C@H](O)C[C@]5(C)[C@H]4CC[C@]3(C)[C@H]1[C@@H]2C [Gitogenin] | 0.1 | 
COc1cc(C(=O)O)cc(O)c1O [3-O-Methylgallic acid] | 0.1 | 
CSCCC(O)C(=O)O (centres unmarked) [Calcium 2-hydroxy-4-(methylthio)butanoate] | 1.2 | 
CC(=O)NCCc1ccc(O)c(O)c1 [N-acetyldopamine] | -0.6 | 
NCCCCCN [Pentane-1,5-diamine (dihydrochloride)] | -0.1 | 
CC(=O)NCCCCCN [N-(5-Aminopentyl)acetamide] | -0.5 | 
C[C@H]1CCCC(=O)CCCCCc2cc(O)cc(O)c2C(=O)O1 [Zearalanone] | 38.7 | 
Nc1nc(=O)n([C@H]2C[C@H](O)[C@@H](CO)O2)cc1CO [5-Hydroxymethyl-2’-deoxycytidine] | -0.8 | 
CC[C@H](CC[C@@H](C)[C@H]1CC[C@H]2[C@@H]3CC=C4C[C@@H](O[C@@H]5O[C@H](CO)[C@@H](O)[C@H](O)[C@H]5O)CC[C@]4(C)[C@H]3CC[C@]12C)C(C)C [Daucosterol] | -0.3 | 
CC[C@]1(O)C[C@@H]2CN(CCc3c([nH]c4ccccc34)[C@@](C(=O)OC)(c3cc4c(cc3OC)N(C)[C@H]3[C@@](O)(C(=O)OC)[C@H](OC(C)=O)[C@]5(CC)C=CCN6CC[C@]43[C@@H]65)C2)C1 [Vinblastine (sulfate)] | 21.5 | 
C[C@H]1CC[C@@H](C(C)(C)O)CC2=C1CC[C@@H]2C [Guaiol] | 1 | 
CC1=CC[C@@]23C[C@@H]1C(C)(C)[C@@H]2CC[C@H]3C [(-)-Cedrene] | 0.1 | 
CC(=O)Nc1ccc(S(=O)(=O)O)c2cc(S(=O)(=O)O)c(N=Nc3ccccc3)c(O)c12 [Lignin] | 0 | 
CCCCC(O)C(=O)O (centres unmarked) [2-Hydroxyhexanoic acid] | 1.1 | 
CC(C)(CC(=O)O)C(=O)O [2,2-Dimethylsuccinic acid] | -3.4 | 
O=C(O)CCCCCCCCCCC(=O)O [Dodecanedioic acid] | -0.8 | 
COc1ccc(-c2oc3c4c(cc(O)c3c(=O)c2O)OC(C)(C)CC4)cc1 [β-Anhydroicaritin] | 0.9 | 
CC1=CC[C@H]2C[C@@H]1C2(C)C [(-)-α-Pinene] | -0.6 | 
CCCCCCCC/C=C\CCCCCCCC(=O)OC [Methyl oleate] | 0 | 
N[C@H](C=O)[C@@H](O)[C@H](O)[C@H](O)CO [(2S,3R,4S,5R)-2-Amino-3,4,5,6-tetrahydroxyhexanal hydrochloride] | -1.6 | 
